Test results published in PMC12563811.
Results are given in words; binding and its absence hold for the method and conditions named. In cells and extracts the contact can be indirect. A yes stands for co-enrichment or nearness to the bait. Other partners may have been found.

Target: T1, transcobalamin 1 (TCN1), in 293T cells (UniProt P20061)
T1 sequence: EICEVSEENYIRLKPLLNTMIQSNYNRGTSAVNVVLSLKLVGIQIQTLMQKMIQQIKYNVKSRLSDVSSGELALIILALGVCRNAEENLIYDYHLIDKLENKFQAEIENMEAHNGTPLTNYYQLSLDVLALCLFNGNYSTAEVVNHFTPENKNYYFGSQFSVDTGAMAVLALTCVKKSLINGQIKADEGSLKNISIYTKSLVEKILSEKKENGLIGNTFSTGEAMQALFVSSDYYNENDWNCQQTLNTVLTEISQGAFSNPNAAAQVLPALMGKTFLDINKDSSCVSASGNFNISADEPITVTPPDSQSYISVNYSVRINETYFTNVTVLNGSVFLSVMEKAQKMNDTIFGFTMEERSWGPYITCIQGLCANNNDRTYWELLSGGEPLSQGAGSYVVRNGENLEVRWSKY
Test: affinity purification with mass spectrometry; proteins precipitated with TCN1 from TCN1-overexpressing cells (HEK-293T by the legend of Figure 6B), silver staining and mass spectrometry; hits crossed with transcription factor prediction databases

- binding: binds
B1: signal transducer and activator of transcription 4 (STAT4), in 293T cells (protein, UniProt Q14765 1-748)
chain: MSQWNQVQQLEIKFLEQVDQFYDDNFPMEIRHLLAQWIENQDWEAASNNETMATILLQNLLIQLDEQLGRVSKEKNLLLIHNLKRIRKVLQGKFHGNPMHVAVVISNCLREERRILAAANMPVQGPLEKSLQSSSVSERQRNVEHKVAAIKNSVQMTEQDTKYLEDLQDEFDYRYKTIQTMDQSDKNSAMVNQEVLTLQEMLNSLDFKRKEALSKMTQIIHETDLLMNTMLIEELQDWKRRQQIACIGGPLHNGLDQLQNCFTLLAESLFQLRRQLEKLEEQSTKMTYEGDPIPMQRTHMLERVTFLIYNLFKNSFVVERQPCMPTHPQRPLVLKTLIQFTVKLRLLIKLPELNYQVKVKASIDKNVSTLSNRRFVLCGTNVKAMSIEESSNGSLSVEFRHLQPKEMKSSAGGKGNEGCHMVTEELHSITFETQICLYGLTIDLETSSLPVVMISNVSQLPNAWASIIWYNVSTNDSQNLVFFNNPPPATLSQLLEVMSWQFSSYVGRGLNSDQLHMLAEKLTVQSSYSDGHLTWAKFCKEHLPGKSFTFWTWLEAILDLIKKHILPLWIDGYVMGFVSKEKERLLLKDKMPGTFLLRFSESHLGGITFTWVDHSESGEVRFHSVEPYNKGRLSALPFADILRDYKVIMAENIPENPLKYLYPDIPKDKAFGKHYSSQPCEVSRPTERGDKGYVPSVFIPISTIRSDSTEPHSPSDLLPMSPSVYAVLRENLSPTTIETAMKSPYSAE
